1 substance from patent publication US20180149638A1 can be followed below.

Amino acid sequences for entries named in this document (tags omitted). A change or cut given only in a name is not applied to a line headed by its entry.
UniProt Q99683: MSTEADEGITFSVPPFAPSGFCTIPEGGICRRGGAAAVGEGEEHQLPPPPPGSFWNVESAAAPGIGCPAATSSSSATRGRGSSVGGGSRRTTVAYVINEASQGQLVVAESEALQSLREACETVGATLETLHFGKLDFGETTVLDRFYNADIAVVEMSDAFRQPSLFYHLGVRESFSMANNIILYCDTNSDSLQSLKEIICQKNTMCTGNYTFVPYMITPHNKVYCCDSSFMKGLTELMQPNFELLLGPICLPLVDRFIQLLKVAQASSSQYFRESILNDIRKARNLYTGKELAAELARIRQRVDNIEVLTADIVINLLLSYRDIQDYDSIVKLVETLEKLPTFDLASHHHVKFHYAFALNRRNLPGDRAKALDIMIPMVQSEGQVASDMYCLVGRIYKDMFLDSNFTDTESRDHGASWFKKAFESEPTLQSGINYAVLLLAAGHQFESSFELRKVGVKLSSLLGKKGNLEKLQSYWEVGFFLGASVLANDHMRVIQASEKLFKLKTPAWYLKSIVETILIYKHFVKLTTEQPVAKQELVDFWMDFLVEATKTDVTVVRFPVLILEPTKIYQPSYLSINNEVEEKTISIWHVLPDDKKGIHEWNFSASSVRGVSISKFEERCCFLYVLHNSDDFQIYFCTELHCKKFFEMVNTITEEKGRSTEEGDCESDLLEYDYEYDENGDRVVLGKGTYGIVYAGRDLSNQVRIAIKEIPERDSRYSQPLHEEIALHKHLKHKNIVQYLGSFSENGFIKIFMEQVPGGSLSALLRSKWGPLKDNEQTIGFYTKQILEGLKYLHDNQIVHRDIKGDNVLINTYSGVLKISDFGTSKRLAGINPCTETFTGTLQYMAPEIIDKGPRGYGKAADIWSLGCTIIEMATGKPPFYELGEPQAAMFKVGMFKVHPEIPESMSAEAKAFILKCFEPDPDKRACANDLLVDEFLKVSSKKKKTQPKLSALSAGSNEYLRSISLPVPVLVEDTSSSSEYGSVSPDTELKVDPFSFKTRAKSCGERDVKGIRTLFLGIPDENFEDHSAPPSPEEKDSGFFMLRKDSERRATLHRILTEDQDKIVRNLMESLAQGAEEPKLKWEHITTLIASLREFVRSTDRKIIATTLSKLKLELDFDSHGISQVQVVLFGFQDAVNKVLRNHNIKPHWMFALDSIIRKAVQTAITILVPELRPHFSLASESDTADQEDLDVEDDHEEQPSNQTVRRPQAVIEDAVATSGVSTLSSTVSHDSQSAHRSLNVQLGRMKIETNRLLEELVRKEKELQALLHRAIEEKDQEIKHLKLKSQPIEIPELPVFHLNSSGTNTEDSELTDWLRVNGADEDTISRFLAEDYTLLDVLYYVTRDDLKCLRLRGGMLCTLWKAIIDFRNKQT

Results are given in words; binding and its absence hold for the method and conditions named. Binding seen in cells or lysates may run through a third protein. Some results given as binding are weak or reduced against the parent protein; the word gives no strength.

The target of the assay is Myc-ASK1N (Myc-tagged N-terminal amino acids 1 to 678 of apoptosis signal-regulated kinase 1) (Homo sapiens (Human)) (UniProt Q99683). In words: co-immunoprecipitation with anti-HA from HEK-293T lysate, Western blot for HA-ASK1N and Myc-ASK1N. In general terms: In western blotting, separated proteins are transferred to a membrane and probed.

As to “HA-ASK1N (HA-tagged N-terminal amino acids 1 to 678 of apoptosis signal-regulated kinase 1) (from UniProt Q99683 1-678)”, the binding result is “binds”.
